Reference: the supplement of paper PMC4604168 (melanoma cell lines)
Some of the results follow. Single values are uncertain, as repeats are few or missing.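 Cells were imaged in 1,536-well plates, and nuclei stained with an antibody against cleaved PARP were counted against all DNA-stained nuclei to give the apoptosis fraction. Screening doses were chosen to leave most cells alive, and resting and induced cleaved-PARP levels differ strongly between cell lines.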

These compounds were tested on COLO800 (assay: cleaved PARP positive nuclei fraction relative to DMSO control; melanoma cells; higher = more apoptosis). Conditions: library dose: low library concentration; 72 h.
In the case of NCC(=O)Nc1ccc(-n2nc(C(F)(F)F)cc2-c2ccc3c(ccc4ccccc43)c2)cc1 + C/C(O)=C(\C#N)C(=O)Nc1cc(Br)ccc1Br [LFM-A13] (first compound 1 µM, partner dose 2 µM), the “cleaved PARP positive nuclei fraction” value was 90.9%. For COc1cc(Nc2ncc(F)c(Nc3ccc4c(n3)NC(=O)C(C)(C)O4)n2)cc(OC)c1OC [Tamatinib] + O=C(Oc1ccc([N+](=O)[O-])cc1)N1CCC(C(O)(c2ccc3c(c2)OCO3)c2ccc3c(c2)OCO3)CC1 [JZL184] (first compound 0.4 µM, partner dose 1 µM), the “cleaved PARP positive nuclei fraction” value was 139%. For O=C(O)C(=O)Nc1sc2c(c1C(=O)O)CCNC2 + O=C(Oc1ccc([N+](=O)[O-])cc1)N1CCC(C(O)(c2ccc3c(c2)OCO3)c2ccc3c(c2)OCO3)CC1 [JZL184] (first compound 1.66667 µM, partner dose 1 µM), the “cleaved PARP positive nuclei fraction” value was 65.6%. In the case of Cc1cc(SCc2sc(-c3ccc(C(F)(F)F)c(F)c3)nc2C)ccc1OCC(=O)O + O=C(Oc1ccc([N+](=O)[O-])cc1)N1CCC(C(O)(c2ccc3c(c2)OCO3)c2ccc3c(c2)OCO3)CC1 [JZL184] (first compound 2 µM, partner dose 1 µM), the “cleaved PARP positive nuclei fraction” value was 114%.

The compounds below were run on COLO829 in the same assay as above. Conditions: library dose: low library concentration; 72 h.
COc1ccc(COc2ccc(Cc3cnc(N)nc3N)cc2OC)cc1 + C/C(O)=C(\C#N)C(=O)Nc1cc(Br)ccc1Br [LFM-A13] (first compound 1 µM, partner dose 2 µM) was tested, and the “cleaved PARP positive nuclei fraction” value was 51.8%. O=C(Oc1ccc([N+](=O)[O-])cc1)N1CCC(C(O)(c2ccc3c(c2)OCO3)c2ccc3c(c2)OCO3)CC1 + CCCCCCCCCCCC1=C(O)C(=O)C=C(O)C1=O [Embelin] (first compound 1 µM, partner dose 1.2 µM) was tested, and the “cleaved PARP positive nuclei fraction” value was 134%. COc1cc(N2CCC(N3CCN(C)CC3)CC2)ccc1Nc1ncc(Cl)c(Nc2ccccc2S(=O)(=O)C(C)C)n1 + O=C(Oc1ccc([N+](=O)[O-])cc1)N1CCC(C(O)(c2ccc3c(c2)OCO3)c2ccc3c(c2)OCO3)CC1 [JZL184] (first compound 0.08 µM, partner dose 1 µM) was tested, and the “cleaved PARP positive nuclei fraction” value was 188%. In the case of O=C(Nc1ccccc1)c1cc([N+](=O)[O-])ccc1Cl + O=C(Oc1ccc([N+](=O)[O-])cc1)N1CCC(C(O)(c2ccc3c(c2)OCO3)c2ccc3c(c2)OCO3)CC1 [JZL184] (first compound 2 µM, partner dose 1 µM), the “cleaved PARP positive nuclei fraction” value was 80.8%. COC(=O)c1sccc1S(=O)(=O)Nc1ccc(Nc2ccccc2)cc1OC + C/C(O)=C(\C#N)C(=O)Nc1cc(Br)ccc1Br [LFM-A13] (first compound 1 µM, partner dose 2 µM) was tested, and the “cleaved PARP positive nuclei fraction” value was 108%. In the case of O=C(Oc1ccc([N+](=O)[O-])cc1)N1CCC(C(O)(c2ccc3c(c2)OCO3)c2ccc3c(c2)OCO3)CC1 + CC(C)CCN1c2nc(Nc3cc(F)c(O)c(F)c3)ncc2N(C)C(=O)C1C [BID1870] (first compound 1 µM, partner dose 0.2 µM), the “cleaved PARP positive nuclei fraction” value was 44.8%. C[As](C)SC[C@H](NC(=O)CC[C@H](N)C(=O)O)C(=O)NCC(=O)O [Darinaparsin] + CCN(CC)CCCCNc1ncc2cc(-c3cc(OC)cc(OC)c3)c(NC(=O)NC(C)(C)C)nc2n1 [PD173074] (first compound 0.4 µM, partner dose 0.1 µM) was tested, and the “cleaved PARP positive nuclei fraction” value was 113%. Cc1cc(SCc2sc(-c3ccc(C(F)(F)F)c(F)c3)nc2C)ccc1OCC(=O)O + C/C(O)=C(\C#N)C(=O)Nc1cc(Br)ccc1Br [LFM-A13] (first compound 2 µM, partner dose 2 µM) was tested, and the “cleaved PARP positive nuclei fraction” value was 53.2%. O=C(Nc1cccc(Cl)c1)Nc1ncc(CCNc2ncnc3ccsc23)s1 + O=C(Oc1ccc([N+](=O)[O-])cc1)N1CCC(C(O)(c2ccc3c(c2)OCO3)c2ccc3c(c2)OCO3)CC1 [JZL184] (first compound 0.0008 µM, partner dose 1 µM) was tested, and the “cleaved PARP positive nuclei fraction” value was 56.6%. With COc1cc2c(Oc3ccc4[nH]c(C)cc4c3F)ncnc2cc1OCCCN1CCCC1 [cediranib] + Cc1cc(SCc2sc(-c3ccc(C(F)(F)F)c(F)c3)nc2C)ccc1OCC(=O)O [GW0742] (first compound 0.4 µM, partner dose 2 µM) the “cleaved PARP positive nuclei fraction” value was 32.8%. With CC1(C)NC(=O)N(c2ccc([N+](=O)[O-])c(C(F)(F)F)c2)C1=O [nilutamide] + Cc1cc(SCc2sc(-c3ccc(C(F)(F)F)c(F)c3)nc2C)ccc1OCC(=O)O [GW0742] (first compound 1 µM, partner dose 2 µM) the “cleaved PARP positive nuclei fraction” value was 138%. With COC(=O)c1sccc1S(=O)(=O)Nc1ccc(Nc2ccccc2)cc1OC + O=C(Oc1ccc([N+](=O)[O-])cc1)N1CCC(C(O)(c2ccc3c(c2)OCO3)c2ccc3c(c2)OCO3)CC1 [JZL184] (first compound 1 µM, partner dose 1 µM) the “cleaved PARP positive nuclei fraction” value was 70.5%. In the case of C[As](C)SC[C@H](NC(=O)CC[C@H](N)C(=O)O)C(=O)NCC(=O)O [Darinaparsin] + COc1ccc(COc2ccc(Cc3cnc(N)nc3N)cc2OC)cc1 [GW2580] (first compound 0.4 µM, partner dose 1 µM), the “cleaved PARP positive nuclei fraction” value was 68.2%. Cn1nnc2c(C(N)=O)ncn2c1=O [temozolomide] + C/C(O)=C(\C#N)C(=O)Nc1cc(Br)ccc1Br [LFM-A13] (first compound 2 µM, partner dose 2 µM) was tested, and the “cleaved PARP positive nuclei fraction” value was 197%. With Cc1cc(SCc2sc(-c3ccc(C(F)(F)F)c(F)c3)nc2C)ccc1OCC(=O)O + Oc1nc(-c2ccc(C(F)(F)F)cc2)nc2c1CSCC2 [XAV939] (first compound 2 µM, partner dose 2 µM) the “cleaved PARP positive nuclei fraction” value was 75.9%. In the case of C/C(O)=C(\C#N)C(=O)Nc1cc(Br)ccc1Br + CC(C)CCN1c2nc(Nc3cc(F)c(O)c(F)c3)ncc2N(C)C(=O)C1C [BID1870] (first compound 2 µM, partner dose 0.2 µM), the “cleaved PARP positive nuclei fraction” value was 91.1%. For Cc1cc(SCc2sc(-c3ccc(C(F)(F)F)c(F)c3)nc2C)ccc1OCC(=O)O + c1cc(-c2cnn3cc(-c4ccc(OCCN5CCCCC5)cc4)cnc23)ccn1 [Dorsomorphin] (first compound 2 µM, partner dose 0.4 µM), the “cleaved PARP positive nuclei fraction” value was 198%. For c1cc(-c2cnn3cc(-c4ccc(OCCN5CCCCC5)cc4)cnc23)ccn1 [Dorsomorphin] + O=C(Oc1ccc([N+](=O)[O-])cc1)N1CCC(C(O)(c2ccc3c(c2)OCO3)c2ccc3c(c2)OCO3)CC1 [JZL184] (first compound 0.4 µM, partner dose 1 µM), the “cleaved PARP positive nuclei fraction” value was 77.9%. With C[As](C)SC[C@H](NC(=O)CC[C@H](N)C(=O)O)C(=O)NCC(=O)O [Darinaparsin] + CCCCCCCCCCCC1=C(O)C(=O)C=C(O)C1=O [Embelin] (first compound 0.4 µM, partner dose 1.2 µM) the “cleaved PARP positive nuclei fraction” value was 153%. For COCC[n+]1c2c(n(Cc3cnccn3)c1C)C(=O)c1ccccc1C2=O + Cc1cc(SCc2sc(-c3ccc(C(F)(F)F)c(F)c3)nc2C)ccc1OCC(=O)O [GW0742] (first compound 0.0004 µM, partner dose 2 µM), the “cleaved PARP positive nuclei fraction” value was 90.2%. In the case of C/C(O)=C(\C#N)C(=O)Nc1cc(Br)ccc1Br + Cn1cc(/C=C2\C(=O)Nc3cccnc32)c2ccccc21 [GW441756] (first compound 2 µM, partner dose 0.4 µM), the “cleaved PARP positive nuclei fraction” value was 163%. For C[As](C)SC[C@H](NC(=O)CC[C@H](N)C(=O)O)C(=O)NCC(=O)O [Darinaparsin] + Cc1cc(SCc2sc(-c3ccc(C(F)(F)F)c(F)c3)nc2C)ccc1OCC(=O)O [GW0742] (first compound 0.4 µM, partner dose 2 µM), the “cleaved PARP positive nuclei fraction” value was 81.5%. For OCCn1cc(-c2cnc3nnn(Cc4ccc5ncccc5c4)c3n2)cn1 + Cc1cc(SCc2sc(-c3ccc(C(F)(F)F)c(F)c3)nc2C)ccc1OCC(=O)O [GW0742] (first compound 1 µM, partner dose 2 µM), the “cleaved PARP positive nuclei fraction” value was 148%. With Cc1ccc(NC(=O)c2cccc(N(C)C)c2)cc1NC(=O)c1ccc(O)cc1 + C/C(O)=C(\C#N)C(=O)Nc1cc(Br)ccc1Br [LFM-A13] (first compound 2 µM, partner dose 2 µM) the “cleaved PARP positive nuclei fraction” value was 69.6%. In the case of Cc1cc(SCc2sc(-c3ccc(C(F)(F)F)c(F)c3)nc2C)ccc1OCC(=O)O + Cc1cc([N+](=O)[O-])ccc1NS(=O)(=O)c1cc(Cl)ccc1Cl [FH535] (first compound 2 µM, partner dose 1 µM), the “cleaved PARP positive nuclei fraction” value was 131%. With Cn1cncc1[C@@](N)(c1ccc(Cl)cc1)c1ccc2c(c1)c(-c1cccc(Cl)c1)cc(=O)n2C [tipifarnib] + C/C(O)=C(\C#N)C(=O)Nc1cc(Br)ccc1Br [LFM-A13] (first compound 0.01 µM, partner dose 2 µM) the “cleaved PARP positive nuclei fraction” value was 201%. With Oc1nc(-c2ccc(C(F)(F)F)cc2)nc2c1CSCC2 + O=C(Oc1ccc([N+](=O)[O-])cc1)N1CCC(C(O)(c2ccc3c(c2)OCO3)c2ccc3c(c2)OCO3)CC1 [JZL184] (first compound 2 µM, partner dose 1 µM) the “cleaved PARP positive nuclei fraction” value was 161%. In the case of O=C(O)c1ccc(-c2c[nH]c3ncc(-c4ccccc4)cc23)cc1C1CCCC1 + Cc1cc(SCc2sc(-c3ccc(C(F)(F)F)c(F)c3)nc2C)ccc1OCC(=O)O [GW0742] (first compound 0.16 µM, partner dose 2 µM), the “cleaved PARP positive nuclei fraction” value was 170%. For Cn1cncc1[C@@](N)(c1ccc(Cl)cc1)c1ccc2c(c1)c(-c1cccc(Cl)c1)cc(=O)n2C [tipifarnib] + Cc1cc(SCc2sc(-c3ccc(C(F)(F)F)c(F)c3)nc2C)ccc1OCC(=O)O [GW0742] (first compound 0.01 µM, partner dose 2 µM), the “cleaved PARP positive nuclei fraction” value was 35%.
